# The list shows a part of the results.
# B1: FimA-N2 (Actinomyces oris) (protein)
# chain: MHHHHHHSSGVDLGTENLYFQSNAWIYDVNVYPKNEAIDVDKTIQAQKLNGYGVGSLIKFPVESTAPTLDAKSFYKYFQLKDTLDERLSEVTATDVSLEGTPLQPTDYKVETKQQTVTVTFTAEGLKKIKAAPGKKVSAVFQGKVTKAGNGAITNRAQVISDTLYAEQPPTPETPPTDPENPPTSDEVISRWGDLSIKKVDTHQQGQTKA
# Key:
# Experiment in all cases: glycan array binding signal (z-score within array); higher = stronger binding
# Conditions in all cases: glycan notation: IUPAC condensed, linker removed
# Fuc(a1-3)GlcNAc = molecular target: Fuc(a1-3)GlcNAc
# Procedure, shortened: (§1)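 Glycan array data came from 3228 arrays in the Consortium for Functional Glycomics database, and only arrays with an available protein sequence were kept. Glycan names were put into IUPAC-condensed notation, and columns mapping to the same glycan were averaged. The binding signal is a within-array Z-score, averaged across arrays of one protein sequence run at different concentrations or buffers and across linkers. A negative Z-score can be read as non-binding.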
# [1] = molecular target: Fuc(a1-3)[Gal(b1-4)]Glc6S
# Procedure, shortened: as §1
# [2] = molecular target: Fuc(a1-3)[Gal(b1-4)]GlcNAc
# Procedure, shortened: as §1
# [3] = molecular target: Fuc(a1-3)[Gal(b1-4)]GlcNAc(b1-2)Man
# Procedure, shortened: as §1
# [4] = molecular target: Fuc(a1-3)[Gal(b1-4)]GlcNAc(b1-2)Man(a1-3)[Fuc(a1-3)[Gal(b1-4)]GlcNAc(b1-2)Man(a1-6)]Man(b1-4)GlcNAc(b1-4)GlcNAc
# Procedure, shortened: as §1
# [5] = molecular target: Fuc(a1-3)[Gal(b1-4)]GlcNAc(b1-2)Man(a1-3)[Fuc(a1-3)[Gal(b1-4)]GlcNAc(b1-2)Man(a1-6)]Man(b1-4)GlcNAc(b1-4)[Fuc(a1-6)]GlcNAc
# Procedure, shortened: as §1
# [6] = molecular target: Fuc(a1-3)[Gal(b1-4)]GlcNAc(b1-3)Gal(b1-3)[Fuc(a1-4)]GlcNAc
# Procedure, shortened: as §1
# [7] = molecular target: Fuc(a1-3)[Gal(b1-4)]GlcNAc(b1-3)Gal(b1-4)[Fuc(a1-3)]GlcNAc
# Procedure, shortened: as §1
# [8] = molecular target: Fuc(a1-3)[Gal(b1-4)]GlcNAc(b1-3)Gal(b1-4)[Fuc(a1-3)]GlcNAc(b1-3)Gal(b1-4)[Fuc(a1-3)]GlcNAc
# Procedure, shortened: as §1
# [9] = molecular target: Fuc(a1-3)[Gal(b1-4)]GlcNAc(b1-3)GalNAc
# Procedure, shortened: as §1
# [10] = molecular target: Fuc(a1-3)[Gal(b1-4)]GlcNAc(b1-6)GalNAc
# Procedure, shortened: as §1
# [11] = molecular target: Fuc(a1-3)[Gal(b1-4)]GlcNAc(b1-6)[Gal(b1-3)GlcNAc(b1-3)]Gal(b1-4)Glc
# Procedure, shortened: as §1
# [12] = molecular target: Fuc(a1-3)[Gal(b1-4)]GlcNAc6S
# Procedure, shortened: as §1
# [13] = molecular target: Fuc(a1-3)[Gal3S(b1-4)]Glc
# Procedure, shortened: as §1
# [14] = molecular target: Fuc(a1-3)[Gal3S(b1-4)]GlcNAc
# Procedure, shortened: as §1
# [15] = molecular target: Fuc(a1-3)[Gal3S(b1-4)]GlcNAc6S
# Procedure, shortened: as §1
# [16] = molecular target: Fuc(a1-3)[GalNAc(b1-4)]GlcNAc
# Procedure, shortened: as §1
# [17] = molecular target: Fuc(a1-3)[GalNAc(b1-4)]GlcNAc6S
# Procedure, shortened: as §1
# Fuc(a1-4)GlcNAc = molecular target: Fuc(a1-4)GlcNAc
# Procedure, shortened: as §1
# Fuc(b1-3)GlcNAc = molecular target: Fuc(b1-3)GlcNAc
# Procedure, shortened: as §1
# Gal(a1-2)Gal = molecular target: Gal(a1-2)Gal
# Procedure, shortened: as §1
# Gal(a1-3)Gal = molecular target: Gal(a1-3)Gal
# Procedure, shortened: as §1
# Gal(a1-3)Gal(b1-3)GlcNAc = molecular target: Gal(a1-3)Gal(b1-3)GlcNAc
# Procedure, shortened: as §1
# [18] = molecular target: Gal(a1-3)Gal(b1-3)GlcNAc(b1-2)Man
# Procedure, shortened: as §1
# [19] = molecular target: Gal(a1-3)Gal(b1-3)GlcNAc(b1-2)Man(a1-3)[Gal(a1-3)Gal(b1-3)GlcNAc(b1-2)Man(a1-6)]Man(b1-4)GlcNAc(b1-4)GlcNAc
# Procedure, shortened: as §1
# [20] = molecular target: Gal(a1-3)Gal(b1-3)GlcNAc(b1-3)GalNAc
# Procedure, shortened: as §1
# [21] = molecular target: Gal(a1-3)Gal(b1-3)GlcNAc(b1-6)GalNAc
# Procedure, shortened: as §1
# [22] = molecular target: Gal(a1-3)Gal(b1-3)[Fuc(a1-4)]GlcNAc(b1-2)Man(a1-3)[Gal(a1-3)Gal(b1-3)[Fuc(a1-4)]GlcNAc(b1-2)Man(a1-6)]Man(b1-4)GlcNAc(b1-4)GlcNAc
# Procedure, shortened: as §1
# Gal(a1-3)Gal(b1-4)Glc = molecular target: Gal(a1-3)Gal(b1-4)Glc
# Procedure, shortened: as §1
# Gal(a1-3)Gal(b1-4)GlcNAc = molecular target: Gal(a1-3)Gal(b1-4)GlcNAc
# Procedure, shortened: as §1
# [23] = molecular target: Gal(a1-3)Gal(b1-4)GlcNAc(b1-2)Man
# Procedure, shortened: as §1
# [24] = molecular target: Gal(a1-3)Gal(b1-4)GlcNAc(b1-2)Man(a1-3)[Gal(a1-3)Gal(b1-4)GlcNAc(b1-2)Man(a1-6)]Man(b1-4)GlcNAc(b1-4)GlcNAc
# Procedure, shortened: as §1
# [25] = molecular target: Gal(a1-3)Gal(b1-4)GlcNAc(b1-3)GalNAc
# Procedure, shortened: as §1
# [26] = molecular target: Gal(a1-3)Gal(b1-4)GlcNAc(b1-6)GalNAc
# Procedure, shortened: as §1
# [27] = molecular target: Gal(a1-3)Gal(b1-4)[Fuc(a1-3)]GlcNAc
# Procedure, shortened: as §1
# [28] = molecular target: Gal(a1-3)Gal(b1-4)[Fuc(a1-3)]GlcNAc(b1-2)Man(a1-3)[Gal(a1-3)Gal(b1-4)[Fuc(a1-3)]GlcNAc(b1-2)Man(a1-6)]Man(b1-4)GlcNAc(b1-4)GlcNAc
# Procedure, shortened: as §1
# Gal(a1-3)GalNAc = molecular target: Gal(a1-3)GalNAc
# Procedure, shortened: as §1
# [29] = molecular target: Gal(a1-3)[Gal(a1-4)]Gal(b1-4)GlcNAc
# Procedure, shortened: as §1
# [30] = molecular target: Gal(a1-4)Gal(b1-3)GlcNAc(b1-2)Man(a1-3)[Gal(a1-4)Gal(b1-3)GlcNAc(b1-2)Man(a1-6)]Man(b1-4)GlcNAc(b1-4)GlcNAc
# Procedure, shortened: as §1
# Gal(a1-4)Gal(b1-4)Glc = molecular target: Gal(a1-4)Gal(b1-4)Glc
# Procedure, shortened: as §1
# Gal(a1-4)Gal(b1-4)GlcNAc = molecular target: Gal(a1-4)Gal(b1-4)GlcNAc
# Procedure, shortened: as §1
# [31] = molecular target: Gal(a1-4)Gal(b1-4)GlcNAc(b1-2)Man(a1-3)[Gal(a1-4)Gal(b1-4)GlcNAc(b1-2)Man(a1-6)]Man(b1-4)GlcNAc(b1-4)GlcNAc
# Procedure, shortened: as §1
# [32] = molecular target: Gal(a1-4)Gal(b1-4)GlcNAc(b1-3)Gal(b1-4)Glc
# Procedure, shortened: as §1
# Gal(a1-4)GlcNAc = molecular target: Gal(a1-4)GlcNAc
# Procedure, shortened: as §1
# Gal(a1-6)Glc = molecular target: Gal(a1-6)Glc
# Procedure, shortened: as §1
binder,measurement,setting,value
B1,glycan array binding signal (z-score),Fuc(a1-3)GlcNAc,0.896
same,glycan array binding signal (z-score),[1],-0.84
same,glycan array binding signal (z-score),[2],-0.144
same,glycan array binding signal (z-score),[3],-0.454
same,glycan array binding signal (z-score),[4],-0.354
same,glycan array binding signal (z-score),[5],1.17
same,glycan array binding signal (z-score),[6],0.251
same,glycan array binding signal (z-score),[7],1.36
same,glycan array binding signal (z-score),[8],-0.031
same,glycan array binding signal (z-score),[9],-0.674
same,glycan array binding signal (z-score),[10],-0.225
same,glycan array binding signal (z-score),[11],0.036
same,glycan array binding signal (z-score),[12],0.295
same,glycan array binding signal (z-score),[13],-0.146
same,glycan array binding signal (z-score),[14],-0.441
same,glycan array binding signal (z-score),[15],-0.836
same,glycan array binding signal (z-score),[16],1.22
same,glycan array binding signal (z-score),[17],-0.264
same,glycan array binding signal (z-score),Fuc(a1-4)GlcNAc,-0.114
same,glycan array binding signal (z-score),Fuc(b1-3)GlcNAc,-0.092
same,glycan array binding signal (z-score),Gal(a1-2)Gal,-0.754
same,glycan array binding signal (z-score),Gal(a1-3)Gal,0.221
same,glycan array binding signal (z-score),Gal(a1-3)Gal(b1-3)GlcNAc,1.02
same,glycan array binding signal (z-score),[18],2.25
same,glycan array binding signal (z-score),[19],0.101
same,glycan array binding signal (z-score),[20],-0.826
same,glycan array binding signal (z-score),[21],-1.06
same,glycan array binding signal (z-score),[22],0.334
same,glycan array binding signal (z-score),Gal(a1-3)Gal(b1-4)Glc,0.989
same,glycan array binding signal (z-score),Gal(a1-3)Gal(b1-4)GlcNAc,0.411
same,glycan array binding signal (z-score),[23],-0.454
same,glycan array binding signal (z-score),[24],-1.06
same,glycan array binding signal (z-score),[25],0.644
same,glycan array binding signal (z-score),[26],-0.538
same,glycan array binding signal (z-score),[27],-1.47
same,glycan array binding signal (z-score),[28],1.29
same,glycan array binding signal (z-score),Gal(a1-3)GalNAc,-0.66
same,glycan array binding signal (z-score),[29],2.77
same,glycan array binding signal (z-score),[30],0.627
same,glycan array binding signal (z-score),Gal(a1-4)Gal(b1-4)Glc,-1.24
same,glycan array binding signal (z-score),Gal(a1-4)Gal(b1-4)GlcNAc,0.248
same,glycan array binding signal (z-score),[31],0.413
same,glycan array binding signal (z-score),[32],-0.622
same,glycan array binding signal (z-score),Gal(a1-4)GlcNAc,-1.59
same,glycan array binding signal (z-score),Gal(a1-6)Glc,-0.872

# Reformatted: entries from further up
binder	measurement	setting	value
B1	glycan array binding signal (z-score)	[2]	-0.144
same	glycan array binding signal (z-score)	Gal(a1-3)Gal	0.221
same	glycan array binding signal (z-score)	[24]	-1.06
